Results are given in words; binding and its absence hold for the method and conditions named. Binding seen in cells or lysates may run through a third protein. Some results given as binding are weak or reduced against the parent protein; the word gives no strength.
Biological target: human metabotropic glutamate receptor 4 (GRM4, variant 1) with the SNAP-tag inserted after the 28th amino acid (human) (UniProt Q14833)
Experiment: FRET or BRET; homogeneous time-resolved FRET on intact T-REx 293 cells expressing one SNAP-tagged receptor; labelled with 100 nM Snap-Tb (donor) and 150 nM Snap-Green (acceptor), 2 h at 37 °C; read in Hanks-HEPES buffer, 20,000 cells per well; controls: buffer, nonlabeled, single-labeled cells, 1:1 mix of separately labeled cells

Chains of the proteins cited; added tags and fusions are not shown. Lines headed by an entry give the natural chain unless they say otherwise; changes in a name come on top. Residues count along the entry.
UniProt Q14833, residues 33-912: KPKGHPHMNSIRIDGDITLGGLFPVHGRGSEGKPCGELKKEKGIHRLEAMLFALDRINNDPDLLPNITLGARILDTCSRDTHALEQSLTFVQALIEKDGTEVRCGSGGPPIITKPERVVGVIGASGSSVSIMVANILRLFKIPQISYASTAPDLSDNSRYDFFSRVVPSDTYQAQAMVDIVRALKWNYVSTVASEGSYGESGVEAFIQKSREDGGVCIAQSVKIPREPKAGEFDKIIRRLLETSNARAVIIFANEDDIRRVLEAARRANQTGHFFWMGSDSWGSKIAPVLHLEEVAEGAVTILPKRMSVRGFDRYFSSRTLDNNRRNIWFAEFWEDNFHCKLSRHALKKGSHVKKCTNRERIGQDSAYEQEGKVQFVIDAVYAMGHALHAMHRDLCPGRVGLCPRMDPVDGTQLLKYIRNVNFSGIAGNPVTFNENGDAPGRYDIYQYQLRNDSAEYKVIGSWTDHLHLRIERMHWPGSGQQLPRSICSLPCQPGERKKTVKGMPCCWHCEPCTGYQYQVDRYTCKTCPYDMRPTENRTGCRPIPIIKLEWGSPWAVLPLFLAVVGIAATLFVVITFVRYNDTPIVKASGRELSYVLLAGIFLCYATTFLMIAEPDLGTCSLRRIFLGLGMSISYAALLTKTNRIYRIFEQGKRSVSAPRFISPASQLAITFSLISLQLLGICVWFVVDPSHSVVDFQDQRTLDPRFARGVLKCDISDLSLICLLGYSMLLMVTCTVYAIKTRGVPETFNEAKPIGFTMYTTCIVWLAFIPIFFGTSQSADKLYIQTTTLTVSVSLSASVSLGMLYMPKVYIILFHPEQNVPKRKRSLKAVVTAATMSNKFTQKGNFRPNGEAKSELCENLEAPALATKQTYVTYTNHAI

human metabotropic glutamate receptor 4 (GRM4, variant 1) with the SNAP-tag inserted after the 28th amino acid (from UniProt Q14833-1 33-912)
binding: binds

From publication PMC7550284, “The functional cooperation of 5-HT1A and mGlu4R in HEK-293 cell line” (Pharmacological Reports, 2020)
